According to patent US20020115111A1, “Compounds” (SmithKline Beecham Corporation, priority 1994, published 2002):
At least one structure is not confirmed: it was looked up by name or label, or the drawing left a doubt. Some results were stated once for a whole list of compounds, not compound by compound.

Molecular target: high affinity rolipram binding form of PDE IV (HPDE IV)
Assay: [3H]-rolipram binding assay (competition for high affinity site)
Set-up: species or system rat
Conditions: for High/Low Ratio (IC50 high affinity form divided by IC50 low affinity form): HPDE IV IC50 / LPDE IV IC50
Procedure: Inhibition of PDE IV catalytic activity can thus be used as an index of the potency of compounds at LPDE IV.
The assay was run for 1 hour at 30° C. The reaction was terminated and bound ligand was separated from free ligand using a Brandel cell harvester. Competition for the high affinity binding site was assessed under conditions that were identical to those used for measuring low affinity PDE activity, expect that [^3H]-cAMP was not present.

COc1ccc([C@@H]2CC[C@H](C(=O)O)C2)cc1OC1CCCC1 (relative stereo) [cis-[3-(3-cyclopentyloxy-4-methoxyphenyl)cyclopentane-1-carboxylate]]
IC50 (competition with 1 nM [3H]-rolipram, 1 hour at 30° C.): 21 nM

COC(=O)C1CC(C#N)(c2ccc(OC(F)F)c(OCC3CC3)c2)CCC1=O (stereo not shown) [2-carbomethoxy-4-cyano-4-(3-cyclopropylmethoxy-4-difluoromethoxyphenyl)cyclohexan-1-one]
High/Low Ratio (IC50 high affinity form divided by IC50 low affinity form) (listed as 2-carbomethoxy-4-cyano-4-(3-cyclopropylmethoxy-4-difluorormethoxyphenyl)cyclohex): ≥ 0.1
High/Low Ratio (IC50 high affinity form divided by IC50 low affinity form) (listed as 2-carbomethoxy-4cyano-4-(3-cyclopropylmethoxy-4-difluoromethoxyphenyl)cyclohexan): ≥ 0.1

N#CC1(c2ccc(OC(F)F)c(OCC3CC3)c2)CCC(O)CC1 (stereo not drawn) [cis-[4-cyano-4-(3-cyclopropylmethoxy-4-difluoromethoxyphenyl)cyclohexan-1-ol]]
High/Low Ratio (IC50 high affinity form divided by IC50 low affinity form): ≥ 0.1
